In patent publication US6376504B1 (Parker Hughes Institute, priority 1998, dated 2002):
Some results were stated once for a whole list of compounds, not compound by compound.

System: human sperm acrosomal membrane
Experiment: Sperm acrosomal membrane integrity, confocal laser scanning microscopy (FITC-Pisum sativum lectin)
Assay type: cell-based
Details: after 6 hours of incubation
Method: The percentages of sperm with an intact acrosome following a 6 hour treatment with and without increasing concentrations (31.2 μM to 500 μM) o f th e three NNIs (S-DABO, F-PBT and D-PBT in comparison to N-9 were evaluated by CLSM. Ethanol permeabilized and airdried sperm smears were stained sequentially with the three fluorescent markers, FITC-Pisum sativum lectin, TOTO-3 iodide, and Nile red (Molecular Probes, Eugene, Oreg.) because their targets are different (acrosome, nucleus, and membrane lipid respectively). Samples were examined under a BioRad MRC-1024 Laser Scanning Confocal Microscope (BioRad Laboratories, Hercules, Calif.) equipped with a krypton/argon mixed gas laser (excitation lines 488, 568, and 647 nm) and mounted on a Nikon Eclipse E800 series upright microscope. The fluorescence emission of fluorescein, TOTO-3 iodide, and Nile red from the acrosomal region, nucleus, and the plasma membrane of sperm after ethanol permteabilization were si multan eously detected using the […], and 680 DF32 emission/filter, respectively. Confocal images were obtained using a Nikon 100×(NA 1.35) objective lens and Kalman collection filter. Digitized images were saved on a Jaz disk (Iomega Corporation, Roy, UT) and process ed using Lasersharp Bio-Rad) with the Adobe Photoshop software (Adobe Systems, Mountain View, Calif.). […]

## Fc1ccccc1CCNC(=S)Nc1ccc(Br)cn1 [F-PBT, N-[2-(2-fluorophenethyl)]-N′-[2-(5-bromopyridyl)]-thiourea]
  treated sperm with acrosomal staining: > 90%
